Counter-ions that a name gives are not always drawn. Some of the results follow. Single values are uncertain, as repeats are few or missing.

The assay concerns p95-ErbB2-MCF7. The experiment in a line: perinuclear lysosome accumulation (PNLA, size of LAMP2 puncta), robust Z-score vs plate median; higher = more perinuclear lysosome accumulation (reversal of invasive lysosome distribution). Conditions: 5 µM; 24 h.
`O=C1c2c(O)cccc2Cc2cccc(O)c21` [Anthralin]: the perinuclear lysosome accumulation was 0.906.
As for `COc1cc(C(=O)OCCCN2CCCN(CCCOC(=O)c3cc(OC)c(OC)c(OC)c3)CC2)cc(OC)c1OC` [Dilazep dihydrochloride], the perinuclear lysosome accumulation turned out to be 1.25.
With `Cc1[nH]ccc2c1[nH]c1cc(=O)ccc12` [Harmol hydrochloride monohydrate] the figure was -0.219; with `CCN(CC)CCOC(=O)C1(C2CCCCC2)CCCCC1` [Dicyclomine hydrochloride], -0.663; with `CN1CCN(C2=Nc3ccccc3Oc3ccc(Cl)cc32)CC1` [Loxapine succinate], -0.69.
The value for `NCc1ccccc1CC(=O)N[C@@H]1C(=O)N2C(C(=O)O)=C(CSc3nnnn3CC(=O)O)CS[C@H]12` [Ceforanide] was -1.63.
The value for `N=C(NCCCCCCNC(=N)NC(=N)Nc1ccc(Cl)cc1)NC(=N)Nc1ccc(Cl)cc1` [Chlorhexidine] was 2.05; that for `C[N+]1(C)CCC(OC(=O)C(O)(c2ccccc2)C2CCCC2)C1` (stereo unspecified) [Glycopyrrolate] was -0.775.
Turning to `N#Cc1ccc(C(c2ccc(C#N)cc2)n2cncn2)cc1` [Letrozole], the perinuclear lysosome accumulation was -0.294.
Take `Clc1ccc(CCC(Cn2ccnc2)Sc2c(Cl)cccc2Cl)cc1` (stereo unspecified) [Butoconazole nitrate]: the perinuclear lysosome accumulation was found to be 2.26.
Take `O=C(O)Cc1ccc(-c2ccccc2)cc1` [Felbinac]: the perinuclear lysosome accumulation was -0.459.
Take `C[C@@H]1C[C@H]2[C@@H]3C[C@H](F)C4=CC(=O)C=C[C@]4(C)[C@@]3(F)[C@@H](O)C[C@]2(C)[C@@]1(O)C(=O)CO` [Flumethasone]: the perinuclear lysosome accumulation is -1.42.
On to `O=C(O)c1cn(-c2ccc(F)cc2)c2cc(N3CCNCC3)c(F)cc2c1=O` [Sarafloxacin], for which the perinuclear lysosome accumulation is -0.678.
With `CN1CCC(=C2c3ccccc3C=Cc3ccccc32)CC1` [Cyproheptadine hydrochloride] the figure was -0.0466; with `N=C(N)NC(=N)NCCc1ccccc1` [Phenformin hydrochloride], -0.19; with `CO[C@H]1/C=C/O[C@@]2(C)Oc3c(C)c(O)c4c(O)c(c(/C=N/N5CCN(C6CCCC6)CC5)c(O)c4c3C2=O)NC(=O)/C(C)=C\C=C\[C@H](C)[C@H](O)[C@@H](C)[C@@H](O)[C@@H](C)[C@H](OC(C)=O)[C@@H]1C` [Rifapentine], -0.99.
The value for `CC(C)(C)NC[C@@H](O)COc1cccc2c1CCCC2=O` [(+) -Levobunolol hydrochloride] was -0.00176; that for `C[C@H]1O[C@H](O[C@H]2[C@H](O)[C@@H](O)[C@@H](O[C@H]3[C@H](O)[C@@H](O)C(O)O[C@@H]3CO)O[C@@H]2CO)[C@H](O)[C@@H](O)[C@@H]1N[C@H]1C=C(CO)[C@@H](O)[C@H](O)[C@H]1O` (stereo partly specified) [Acarbose] was 1.18; that for `C=C1CC[C@H](O)C/C1=C/C=C1\CCC[C@]2(C)[C@@H]([C@H](C)CCCC(C)C)CC[C@@H]12` [Cholecalciferol] was -0.581.
With `CCCc1cc(C(N)=S)ccn1` [Prothionamide] the figure was 0.474.
As to `CC(=O)S[C@@H]1CC2=CC(=O)CC[C@]2(C)[C@H]2CC[C@@]3(C)[C@@H](CC[C@@]34CCC(=O)O4)[C@H]12` [Spironolactone], the perinuclear lysosome accumulation is -1.35.
For the compound `CC(Cc1cccc(C(F)(F)F)c1)NCCOC(=O)c1ccccc1` (stereo unspecified) [Benfluorex hydrochloride], the perinuclear lysosome accumulation turned out to be 0.313.
`C=CC(N)CCC(=O)O` (stereo unspecified) [Vigabatrin]: the perinuclear lysosome accumulation was -3.59.
Take `NS(=O)(=O)c1cc(C2(O)NC(=O)c3ccccc32)ccc1Cl` (stereo unspecified) [Chlorthalidone]: the perinuclear lysosome accumulation was -0.568.
The value for `CCN[C@H]1CN(CCCOC)S(=O)(=O)c2sc(S(N)(=O)=O)cc21` [Brinzolamide] was -0.688; that for `CC(=O)OCC(=O)[C@@]1(O)CC[C@H]2[C@@H]3CCC4=CC(=O)CC[C@]4(C)[C@H]3[C@@H](O)C[C@@]21C` [Cortisol acetate] was -2.63; that for `CC(C)c1c(C(=O)Nc2ccccc2)c(-c2ccccc2)c(-c2ccc(F)cc2)n1CC[C@@H](O)C[C@@H](O)CC(=O)O` [Atorvastatin] was -1.17.
As to `Cc1ccc(C(=O)c2ccc(CC(=O)O)n2C)cc1` [Tolmetin sodium salt dihydrate], the perinuclear lysosome accumulation was 0.428.
With `COC(=O)Nc1nc2cc(C(=O)c3cccs3)ccc2[nH]1` [Nocodazole] the figure was 3.73; with `CCCCN(CCCC)CCCOC(=O)c1ccc(N)cc1` [Butacaine], -1.29; with `CC[N+](C)(CC)CCOC(=O)C1c2ccccc2Oc2ccccc21` [Methantheline bromide], 0.502.
As to `CC(=O)OCC(=O)[C@@]1(O)CC[C@H]2[C@@H]3CCC4=CC(=O)CC[C@]4(C)[C@@]3(F)[C@@H](O)C[C@@]21C` [Fludrocortisone acetate], the perinuclear lysosome accumulation is -0.224.
As for `OC(Cn1cncn1)(Cn1cncn1)c1ccc(F)cc1F` [Fluconazole], the perinuclear lysosome accumulation was -0.113.
On to `CCCOc1cc(N)ccc1C(=O)OCCN(CC)CC` [Propoxycaine hydrochloride], for which the perinuclear lysosome accumulation is -0.795.
The value for `CC[N+](C)(C)c1cccc(O)c1` [Edrophonium chloride] was -0.479.
For the compound `CC(C(=O)O)c1cccc(Oc2ccccc2)c1` (stereo unspecified) [Fenoprofen calcium salt dihydrate], the perinuclear lysosome accumulation was 2.16.
With `CCCc1ncc(C[n+]2ccccc2C)c(N)n1` [Amprolium hydrochloride] the figure was -1.09.
Consider `CCn1cc(C(=O)O)c(=O)c2cc(F)c(N3CCNCC3)nc21` [Enoxacin], for which the perinuclear lysosome accumulation came out at 1.16.
The value for `CC(=O)OCC(=O)NCCCOc1cccc(CN2CCCCC2)c1` [Roxatidine Acetate HCl] was 0.73; that for `CC(C)(C)C(=O)OCOC(=O)[C@@H]1N2C(=O)[C@@H](/N=C/N3CCCCCC3)[C@H]2SC1(C)C` [Pivmecillinam hydrochloride] was -2.01; that for `OCC(O)CN1CCN(c2ccccc2)CC1` (racemic) [Dropropizine (R,S)] was 1.55.
The value for `CNc1ncnc2c1ncn2[C@@H]1O[C@H](CO)[C@@H](O)[C@H]1O` [N6-methyladenosine] was -0.429; that for `c1ccc2c(c1)CCCC2C1=NCCN1` (stereo unspecified) [Tetrahydrozoline hydrochloride] was 0.784.
With `C[C@@H](O)[C@H]1C(=O)N2C(C(=O)O)=C(SCCNC=N)C[C@H]12` [Imipenem] the figure was 0.815; with `CCCCCN(C)CCC(O)(P(=O)(O)O)P(=O)(O)O` [Ibandronate], 1.01; with `C1N2CN3CN1CN(C2)C3` [Methenamine], 0.769.
As to `O=C1NCCN1c1ncc([N+](=O)[O-])s1` [Niridazole], the perinuclear lysosome accumulation was -0.804.
With `C=C(CC)C(=O)c1ccc(OCC(=O)O)c(Cl)c1Cl` [Ethacrynic acid] the figure was -1.13.
With `Nc1ccc(S(=O)(=O)NC(=O)c2ccccc2)cc1` [Sulfabenzamide] the figure was 0.828; with `CCN(CC)CCCC(C)Nc1ccnc2cc(Cl)ccc12` (stereo unspecified) [Chloroquine diphosphate], 0.794; with `CN(C)[C@@H]1C(O)=C(C(N)=O)C(=O)[C@@]2(O)C(O)=C3C(=O)c4c(O)cccc4[C@@](C)(O)[C@H]3C[C@@H]12` [Tetracycline hydrochloride], -0.0826.
The value for `C[C@]12CCC(=O)C=C1CC[C@@H]1[C@@H]2C(=O)C[C@@]2(C)[C@H]1CC[C@]2(O)C(=O)CO` [Cortisone] was -1.2; that for `COCCCC/C(=N\OCCN)c1ccc(C(F)(F)F)cc1` [Fluvoxamine maleate] was 0.952.
In the case of `OCCN1CCN(CCCN2c3ccccc3Sc3ccc(C(F)(F)F)cc32)CC1` [Fluphenazine dihydrochloride], the perinuclear lysosome accumulation is 3.09.
Take `CC(C)(Oc1ccc(CCNC(=O)c2ccc(Cl)cc2)cc1)C(=O)O` [Bezafibrate]: the perinuclear lysosome accumulation came out at 0.922.
With `c1ccc(CC2=NCCN2)cc1` [Tolazoline hydrochloride], the perinuclear lysosome accumulation was -0.286.
On to `O=C1c2ccccc2C(=O)C1c1ccccc1` [Phenindione], for which the perinuclear lysosome accumulation came out at 0.607.
The value for `Clc1ccc2c(c1)C(N1CCNCC1)=Nc1ccccc1O2` [Amoxapine] was 0.208.
With `CC[C@H]1OC(=O)[C@H](C)[C@@H](O[C@H]2C[C@@](C)(OC)[C@@H](O)[C@H](C)O2)[C@H](C)[C@@H](O[C@@H]2O[C@H](C)C[C@H](N(C)C)[C@H]2O)[C@](C)(O)C[C@@H](C)C(=O)[C@H](C)[C@@H](O)[C@]1(C)O` [Erythromycin] the figure was -4.03.
The value for `CO[C@H]1/C=C/O[C@@]2(C)Oc3c(C)c(O)c4c(O)c(c(/C=N/N5CCN(C)CC5)c(O)c4c3C2=O)NC(=O)/C(C)=C\C=C\[C@H](C)[C@H](O)[C@@H](C)[C@@H](O)[C@@H](C)[C@H](OC(C)=O)[C@@H]1C` [Rifampicin] was -1.47; that for `CCCSc1ccc2[nH]c(NC(=O)OC)nc2c1` [Albendazole] was -0.935.
For `Cc1c(Cl)cccc1Nc1ccccc1C(=O)O` [Tolfenamic acid], the perinuclear lysosome accumulation amounted to 0.229.
With `Cc1ccc(N(CC2=NCCN2)c2cccc(O)c2)cc1` [Phentolamine hydrochloride] the figure was 1.22; with `CCc1ccc(CCOc2ccc(CC3SC(=O)NC3=O)cc2)nc1` (stereo unspecified) [Pioglitazone], -0.613.
With `CO[C@@]1(NC(=O)C(C(=O)O)c2ccc(O)cc2)C(=O)N2C(C(=O)O)=C(CSc3nnnn3C)CO[C@@H]21` (stereo partly specified) [Moxalactam disodium salt] the figure was -0.424; with `C#C[C@]1(O)CC[C@H]2[C@@H]3CCC4=CC(=O)CC[C@@H]4[C@H]3CC[C@@]21C` [Norethindrone], -0.627.
With `C#C[C@]1(OC(C)=O)CC[C@H]2[C@@H]3CCC4=C[C@@H](OC(C)=O)CC[C@@H]4[C@H]3CC[C@@]21C` [Ethynodiol diacetate] the figure was -0.518.
`Nc1ccc(S(=O)(=O)Nc2ncccn2)cc1` [Sulfadiazine]: the perinuclear lysosome accumulation is -0.896.
Regarding `Nc1ccc(O)c(C(=O)O)c1` [Mesalamine], the perinuclear lysosome accumulation was -0.364.
With `CCN(CC)CCOC(=O)C1(c2ccc([N+](=O)[O-])cc2)CCCC1` [Nitrocaramiphen hydrochloride] the figure was -2.43; with `CO[C@@]1(NC(=O)C2SC(=C(C(N)=O)C(=O)O)S2)C(=O)N2C(C(=O)O)=C(CSc3nnnn3C)CS[C@@H]21` (stereo partly specified) [Cefotetan], 0.06.

Values taken from the supplement of paper PMC8090911.
